{
  "sequences": {"note": "Sequences of proteins named here, by UniProt entry; tags and fusion partners are left off. A change or cut given only in a name is not applied to a line headed by its entry.", "UniProt P19793": "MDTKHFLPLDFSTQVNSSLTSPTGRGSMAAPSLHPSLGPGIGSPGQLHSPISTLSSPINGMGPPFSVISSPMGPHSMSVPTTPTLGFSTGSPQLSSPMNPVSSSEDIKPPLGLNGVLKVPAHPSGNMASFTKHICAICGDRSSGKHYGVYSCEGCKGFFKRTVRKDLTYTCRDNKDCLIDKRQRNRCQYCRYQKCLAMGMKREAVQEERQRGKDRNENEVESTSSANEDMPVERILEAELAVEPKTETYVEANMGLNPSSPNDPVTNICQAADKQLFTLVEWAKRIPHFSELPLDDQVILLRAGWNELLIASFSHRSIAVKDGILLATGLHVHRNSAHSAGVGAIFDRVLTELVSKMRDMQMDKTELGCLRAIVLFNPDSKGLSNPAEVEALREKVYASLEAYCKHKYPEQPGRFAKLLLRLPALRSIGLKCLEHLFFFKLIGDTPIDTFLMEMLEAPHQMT"},
  "source": "PubChem BioAssay (Tox21)",
  "note": "“And” between values parts separate entries of the source, which are not always exact repeats. Equal entries are not always repeated. The inconclusive results got no clear call from the source; some entries with a clear call stand among them for comparison. A potency beside an inconclusive call is a rough fit, not a confirmed value. The source made the active and inactive calls. Unless noted, calls come from the whole dose curve. Peptide text beside a SMILES is read from it. % is set by controls: 0 for no effect and ±100 for the full control effect; potency is the fitted concentration of half-maximal effect.",
  "data": [
    {"biological_target": "Retinoic acid receptor RXR-alpha (Homo sapiens) (UniProt P19793)", "experiment": "qHTS assay to identify small molecule agonists of the RXR signaling pathway (AID 1159527); note: nearly all actives have a fitted effect of over 35% in size", "settings": "HEK293T RXRa-UAS-bla, beta-lactamase ratio, 16 h; activation: at 76.8 µM (top of the series) unless noted", "in_short": "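Beta-lactamase reporter assay, agonist format. Engineered HEK 293T line, charcoal-stripped FBS at 2%, overnight (16 hr) exposure, fluorescence at 460 and 530 nm after 405 nm excitation.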", "values": [
      {"smiles": "CCCCC(CC)COC(=O)/C=C/c1ccc(OC)cc1", "note": "(stereo unspecified)", "Potency": "inconclusive: 15.4 µM [inhibitor, partial curve, poor fit]", "activation": "inconclusive: -30.2% [at 35.3 µM]"},
      {"smiles": "CSCCC=O", "Potency": "inconclusive: 54.9 µM [fluorescent, partial curve, poor fit]", "activation": "inconclusive: -14.7%"},
      {"smiles": "CCCCCCOc1cc(C)c(O)c(C)c1C", "Potency": "inconclusive: 55.6 µM [cytotoxic, single point]"},
      {"smiles": "Cc1cc(O)c(C(C)(C)C)cc1Sc1cc(C(C)(C)C)c(O)cc1C", "Potency": "inconclusive: 21.8 µM [cytotoxic, full curve]"},
      {"smiles": "CCCCCCCCCC", "activation": "inconclusive: -6.74%"},
      {"smiles": "CCCCCCCCCCCCN(CCO)CCO", "Potency": "inconclusive: 38.7 µM [cytotoxic, single point]"},
      {"smiles": "O=C(O)c1ccccc1C(c1ccc(O)cc1)c1ccc(O)cc1", "activation": "inconclusive: 20.9%"},
      {"smiles": "CCCCCCCCCCCCCC[P+](CCCC)(CCCC)CCCC", "Potency": "inconclusive: 13.7 µM [cytotoxic, full curve] and inconclusive: 24.5 µM [cytotoxic]"},
      {"smiles": "CCN(CC)CCOC(=O)c1ccc(N)cc1", "Potency": "inactive"},
      {"smiles": "c1ccc(Nc2cccc3ccccc23)cc1", "Potency": "inconclusive: 55.7 µM [cytotoxic, single point] and inactive"},
      {"smiles": "CCCCCCCOC(=O)c1ccc(O)cc1", "Potency": "inconclusive: 49 µM [falling, single point]"},
      {"smiles": "COC(=O)[C@H](Cc1ccccc1)NC(=O)[C@@H](N)CC(=O)O", "note": "(H-Asp-Phe-OMe)", "Potency": "inactive"},
      {"smiles": "CCC(Cc1c(I)cc(I)c(N)c1I)C(=O)O", "note": "(stereo unspecified)", "Potency": "inconclusive: 29.9 µM [rising, partial curve]"},
      {"smiles": "OCC(CO)(CBr)CBr", "Potency": "inactive and inconclusive: 21.9 µM [activator, partial curve, poor fit]"},
      {"smiles": "CCCCCCCC/C=C/CCCCCCCC1=NCCN1CCO", "Potency": "inconclusive: 6.16 µM [rising, partial curve, poor fit]"},
      {"smiles": "CSc1ccc2c(c1)N(CCC1CCCCN1C)c1ccccc1S2", "note": "(stereo unspecified)", "Potency": "inconclusive: 43.5 µM [cytotoxic, partial curve, poor fit]", "activation": "inconclusive: -15.9% [at 35.3 µM]"},
      {"smiles": "Oc1ccc(O)cc1", "Potency": "inconclusive: 61.3 µM [cytotoxic] and inconclusive: 61.6 µM [inhibitor, single point]"},
      {"smiles": "CCCCCCO", "Potency": "inactive"},
      {"smiles": "O=C(O)c1ccc2c(c1)C(=O)OC2=O", "activation": "inconclusive: 16.7% and inconclusive: 16.5%"},
      {"smiles": "Nc1ccc(O)c(C(=O)O)c1", "Potency": "inconclusive: 48.6 µM [activator, partial curve, poor fit]", "activation": "inconclusive: 11.5%"},
      {"smiles": "COc1cc(Cc2cnc(N)nc2N)cc(OC)c1OC", "Potency": "inconclusive: 17.3 µM [activator, full curve]", "activation": "inconclusive: 6.4% [at 35.3 µM]"},
      {"smiles": "CCCCCCCCCCCCCC[P+](CCCC)(CCCC)CCCC", "note": "(tested in a mixture with another compound)", "Potency": "inconclusive: 22 µM [cytotoxic, full curve]"},
      {"smiles": "c1ccc(OCCOc2ccccc2)cc1", "Potency": "inconclusive: 3.46 µM [inhibitor, full curve] and inactive"},
      {"smiles": "Cc1ccc(S(=O)(=O)NC(=O)NN2CCCCCC2)cc1", "activation": "inconclusive: 17.6%"},
      {"smiles": "CCCCCCCCCCCCCCCC[N+](C)(C)Cc1ccccc1", "Potency": "inconclusive: 71.4 µM [cytotoxic, single point] and inconclusive: 55.9 µM [cytotoxic, single point] and inconclusive: 23.9 µM [cytotoxic, single point]"},
      {"smiles": "CC1=C(/C=C/C(C)=C/C=C/C(C)=C\\C=O)C(C)(C)CCC1", "Potency": "active: 0.328 µM"},
      {"smiles": "COc1cccc(-c2ccc(/C=C\\CN3CCCCCC3)cc2Cl)c1", "Potency": "inconclusive: 17.3 µM [inhibitor, partial curve]"}
    ]},
    {"system": "not listed separately", "experiment": "qHTS assay to identify small molecule agonists of the RXR signaling pathway - cell viability counter screen (AID 1159529; active = well fitted cell-killing curve with a large enough effect in the repeat runs; inconclusive = weak or mixed curves, or effect the other way; inactive = no such curve, though single readings can be large or run the other way; note: nearly all actives have a fitted effect of over 50% in size)", "settings": "RXR-alpha-bla HEK293T viability, CellTiter-Glo, 16 h; series mostly up to 76.8 µM", "in_short": "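Same-well viability check after the LiveBLAzer FRET read: CellTiter-Glo added, luminescence measured after 30 min at room temperature. Reporter HEK 293T cells had been treated with compounds for 16 hr following a 5 hr preincubation.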", "values": [
      {"smiles": "Cc1cc(O)c(C(C)(C)C)cc1Sc1cc(C(C)(C)C)c(O)cc1C", "Potency": "active: 12.3 µM"},
      {"smiles": "CCCCCCCCCCCCN(CCO)CCO", "Potency": "active: 24.4 µM"},
      {"smiles": "O=C(O)c1ccccc1C(c1ccc(O)cc1)c1ccc(O)cc1", "Potency": "inconclusive: 21.9 µM [rising, full curve, poor fit]"},
      {"smiles": "CCCCCCCCCCCCCC[P+](CCCC)(CCCC)CCCC", "Potency": "active: 6.13 µM and active: 11 µM"},
      {"smiles": "c1ccc(Nc2cccc3ccccc23)cc1", "Potency": "inconclusive: 21.9 µM [cytotoxic, partial curve, poor fit]"},
      {"smiles": "CSc1ccc2c(c1)N(CCC1CCCCN1C)c1ccccc1S2", "note": "(stereo unspecified)", "Potency": "active: 19.4 µM and active: 26.8 µM"},
      {"smiles": "Oc1ccc(O)cc1", "Potency": "inconclusive: 54.6 µM [cytotoxic, single point] and inconclusive: 54.9 µM [cytotoxic, single point]"},
      {"smiles": "O=C(O)c1ccc2c(c1)C(=O)OC2=O", "Potency": "inactive"},
      {"smiles": "CC1=C(/C=C/C(C)=C/C=C/C(C)=C\\C=O)C(C)(C)CCC1", "Potency": "active: 52 µM"}
    ]}
  ]
}
